Test results reported in article doi:10.1101/2021.01.05.425376.
No constants are given. Whether binding was seen depends on the method and setting. Binding seen in cells or lysates may run through a third protein. Some entries that bind do so weakly or less than the wild type. Sequences can lack the tags named with a protein. Blank lines part the entries; values can stand above or below the binder they belong to.

Columns and labels:
Test in all cases: co-IP
Heh1^GFP (S. cerevisiae) = target: T1, Heh1^GFP (S. cerevisiae) (UniProt Q03707)
T1 sequence: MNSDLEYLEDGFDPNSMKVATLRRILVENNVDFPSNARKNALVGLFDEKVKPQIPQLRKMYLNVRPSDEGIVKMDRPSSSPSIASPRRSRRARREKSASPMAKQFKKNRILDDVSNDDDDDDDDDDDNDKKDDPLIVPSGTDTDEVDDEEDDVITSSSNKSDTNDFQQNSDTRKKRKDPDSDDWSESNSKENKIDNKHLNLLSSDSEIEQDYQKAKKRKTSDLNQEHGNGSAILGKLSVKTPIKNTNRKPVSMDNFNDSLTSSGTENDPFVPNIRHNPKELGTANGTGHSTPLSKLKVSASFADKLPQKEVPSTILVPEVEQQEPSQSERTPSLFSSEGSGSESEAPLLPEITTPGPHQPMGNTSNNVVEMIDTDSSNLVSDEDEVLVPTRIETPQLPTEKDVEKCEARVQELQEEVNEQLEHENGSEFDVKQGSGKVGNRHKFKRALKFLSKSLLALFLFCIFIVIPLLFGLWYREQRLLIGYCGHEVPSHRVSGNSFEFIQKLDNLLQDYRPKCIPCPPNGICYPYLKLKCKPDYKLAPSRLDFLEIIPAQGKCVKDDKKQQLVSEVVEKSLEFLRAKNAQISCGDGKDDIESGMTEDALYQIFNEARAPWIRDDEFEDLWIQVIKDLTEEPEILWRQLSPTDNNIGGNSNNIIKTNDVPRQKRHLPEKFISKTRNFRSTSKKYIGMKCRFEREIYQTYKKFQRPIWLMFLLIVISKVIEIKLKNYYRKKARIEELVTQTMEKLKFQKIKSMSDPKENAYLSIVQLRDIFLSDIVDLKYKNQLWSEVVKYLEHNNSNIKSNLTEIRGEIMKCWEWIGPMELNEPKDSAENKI

Lrs4^TAP (S. cerevisiae) = target: T2, Lrs4^TAP (S. cerevisiae) (UniProt Q04087)
T2 sequence: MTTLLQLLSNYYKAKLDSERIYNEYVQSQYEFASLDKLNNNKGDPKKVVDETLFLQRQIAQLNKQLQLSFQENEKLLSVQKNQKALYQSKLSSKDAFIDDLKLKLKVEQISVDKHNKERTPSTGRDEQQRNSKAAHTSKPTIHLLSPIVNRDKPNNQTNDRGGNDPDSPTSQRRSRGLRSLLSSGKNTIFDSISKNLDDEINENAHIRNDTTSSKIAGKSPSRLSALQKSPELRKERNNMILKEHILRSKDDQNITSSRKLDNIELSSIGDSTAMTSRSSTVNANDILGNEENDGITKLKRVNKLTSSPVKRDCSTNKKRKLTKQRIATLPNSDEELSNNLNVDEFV

Nur1^3HA (S. cerevisiae) = target: T3, Nur1^3HA (S. cerevisiae) (UniProt Q12066)
T3 sequence: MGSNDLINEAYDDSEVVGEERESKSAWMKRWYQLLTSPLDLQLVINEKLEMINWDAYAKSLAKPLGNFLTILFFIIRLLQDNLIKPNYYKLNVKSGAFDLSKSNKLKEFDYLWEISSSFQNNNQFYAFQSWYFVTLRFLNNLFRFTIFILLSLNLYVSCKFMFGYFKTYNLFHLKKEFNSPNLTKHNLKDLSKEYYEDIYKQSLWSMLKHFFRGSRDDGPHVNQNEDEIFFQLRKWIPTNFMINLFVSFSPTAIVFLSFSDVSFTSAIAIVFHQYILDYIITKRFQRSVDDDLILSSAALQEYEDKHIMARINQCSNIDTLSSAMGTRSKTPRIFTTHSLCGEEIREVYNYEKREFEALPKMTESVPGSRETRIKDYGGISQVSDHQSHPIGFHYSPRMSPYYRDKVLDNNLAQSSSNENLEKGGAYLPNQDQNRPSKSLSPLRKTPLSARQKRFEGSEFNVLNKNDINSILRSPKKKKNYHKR

Lrs4^3HA (S. cerevisiae) = target: T4, Lrs4^3HA (S. cerevisiae) (UniProt Q04087)
T4 sequence: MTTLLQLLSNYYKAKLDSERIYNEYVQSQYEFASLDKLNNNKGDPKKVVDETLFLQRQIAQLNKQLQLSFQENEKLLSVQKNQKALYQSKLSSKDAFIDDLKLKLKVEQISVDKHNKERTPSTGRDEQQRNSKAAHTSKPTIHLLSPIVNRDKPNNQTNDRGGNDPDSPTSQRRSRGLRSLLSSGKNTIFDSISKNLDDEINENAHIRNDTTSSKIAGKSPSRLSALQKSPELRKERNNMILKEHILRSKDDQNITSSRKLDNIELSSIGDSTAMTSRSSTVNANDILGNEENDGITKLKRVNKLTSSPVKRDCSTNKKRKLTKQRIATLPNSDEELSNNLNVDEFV

binding (Heh1^GFP (S. cerevisiae)): binds
B1: Nur1^3HA (protein, UniProt Q12066 1-484)
chain: MGSNDLINEAYDDSEVVGEERESKSAWMKRWYQLLTSPLDLQLVINEKLEMINWDAYAKSLAKPLGNFLTILFFIIRLLQDNLIKPNYYKLNVKSGAFDLSKSNKLKEFDYLWEISSSFQNNNQFYAFQSWYFVTLRFLNNLFRFTIFILLSLNLYVSCKFMFGYFKTYNLFHLKKEFNSPNLTKHNLKDLSKEYYEDIYKQSLWSMLKHFFRGSRDDGPHVNQNEDEIFFQLRKWIPTNFMINLFVSFSPTAIVFLSFSDVSFTSAIAIVFHQYILDYIITKRFQRSVDDDLILSSAALQEYEDKHIMARINQCSNIDTLSSAMGTRSKTPRIFTTHSLCGEEIREVYNYEKREFEALPKMTESVPGSRETRIKDYGGISQVSDHQSHPIGFHYSPRMSPYYRDKVLDNNLAQSSSNENLEKGGAYLPNQDQNRPSKSLSPLRKTPLSARQKRFEGSEFNVLNKNDINSILRSPKKKKNYHKR

binding (Lrs4^TAP (S. cerevisiae)): binds
binding (Nur1^3HA (S. cerevisiae)): binds
B2: Heh1^GFP (protein, UniProt Q03707 1-834)
chain: MNSDLEYLEDGFDPNSMKVATLRRILVENNVDFPSNARKNALVGLFDEKVKPQIPQLRKMYLNVRPSDEGIVKMDRPSSSPSIASPRRSRRARREKSASPMAKQFKKNRILDDVSNDDDDDDDDDDDNDKKDDPLIVPSGTDTDEVDDEEDDVITSSSNKSDTNDFQQNSDTRKKRKDPDSDDWSESNSKENKIDNKHLNLLSSDSEIEQDYQKAKKRKTSDLNQEHGNGSAILGKLSVKTPIKNTNRKPVSMDNFNDSLTSSGTENDPFVPNIRHNPKELGTANGTGHSTPLSKLKVSASFADKLPQKEVPSTILVPEVEQQEPSQSERTPSLFSSEGSGSESEAPLLPEITTPGPHQPMGNTSNNVVEMIDTDSSNLVSDEDEVLVPTRIETPQLPTEKDVEKCEARVQELQEEVNEQLEHENGSEFDVKQGSGKVGNRHKFKRALKFLSKSLLALFLFCIFIVIPLLFGLWYREQRLLIGYCGHEVPSHRVSGNSFEFIQKLDNLLQDYRPKCIPCPPNGICYPYLKLKCKPDYKLAPSRLDFLEIIPAQGKCVKDDKKQQLVSEVVEKSLEFLRAKNAQISCGDGKDDIESGMTEDALYQIFNEARAPWIRDDEFEDLWIQVIKDLTEEPEILWRQLSPTDNNIGGNSNNIIKTNDVPRQKRHLPEKFISKTRNFRSTSKKYIGMKCRFEREIYQTYKKFQRPIWLMFLLIVISKVIEIKLKNYYRKKARIEELVTQTMEKLKFQKIKSMSDPKENAYLSIVQLRDIFLSDIVDLKYKNQLWSEVVKYLEHNNSNIKSNLTEIRGEIMKCWEWIGPMELNEPKDSAENKI

binding (Lrs4^3HA (S. cerevisiae)): binds
B3: ^GFPHeh1 (long splice form Heh1) (protein, UniProt Q03707 1-834)
chain: MNSDLEYLEDGFDPNSMKVATLRRILVENNVDFPSNARKNALVGLFDEKVKPQIPQLRKMYLNVRPSDEGIVKMDRPSSSPSIASPRRSRRARREKSASPMAKQFKKNRILDDVSNDDDDDDDDDDDNDKKDDPLIVPSGTDTDEVDDEEDDVITSSSNKSDTNDFQQNSDTRKKRKDPDSDDWSESNSKENKIDNKHLNLLSSDSEIEQDYQKAKKRKTSDLNQEHGNGSAILGKLSVKTPIKNTNRKPVSMDNFNDSLTSSGTENDPFVPNIRHNPKELGTANGTGHSTPLSKLKVSASFADKLPQKEVPSTILVPEVEQQEPSQSERTPSLFSSEGSGSESEAPLLPEITTPGPHQPMGNTSNNVVEMIDTDSSNLVSDEDEVLVPTRIETPQLPTEKDVEKCEARVQELQEEVNEQLEHENGSEFDVKQGSGKVGNRHKFKRALKFLSKSLLALFLFCIFIVIPLLFGLWYREQRLLIGYCGHEVPSHRVSGNSFEFIQKLDNLLQDYRPKCIPCPPNGICYPYLKLKCKPDYKLAPSRLDFLEIIPAQGKCVKDDKKQQLVSEVVEKSLEFLRAKNAQISCGDGKDDIESGMTEDALYQIFNEARAPWIRDDEFEDLWIQVIKDLTEEPEILWRQLSPTDNNIGGNSNNIIKTNDVPRQKRHLPEKFISKTRNFRSTSKKYIGMKCRFEREIYQTYKKFQRPIWLMFLLIVISKVIEIKLKNYYRKKARIEELVTQTMEKLKFQKIKSMSDPKENAYLSIVQLRDIFLSDIVDLKYKNQLWSEVVKYLEHNNSNIKSNLTEIRGEIMKCWEWIGPMELNEPKDSAENKI
